Assay results: patent US20050256051A1, “Nuclear receptor-mediated introduction of a PNA into cell nuclei” (The Population Council, Inc., priority 2001, published 2005)

Assays:
[1] = tested on: LNCaP cells; assay: Cellular localization of rhodaminated PNAs by confocal fluorescence/phase contrast microscopy in LNCaP cells; type: cell-based, human; conditions: 2 μM, 24 h
[2] = tested on: DU145 cells; assay: Cellular localization of rhodaminated PNAs by confocal fluorescence/phase contrast microscopy in DU145 cells; type: cell-based, human; conditions: 2 μM; for cellular localization of fluorescence: 24 h, confocal microscopy

In the case of CCN(CC)c1ccc2c(-c3ccccc3C(=O)NCCCC[C@H](NC(=O)COCCOCCNC(=O)CN(CCNC(=O)CN(CCNC(=O)CN(CCNC(=O)CN(CCNC(=O)CN(CCNC(=O)CN(CCNC(=O)CN(CCNC(=O)CN(CCNC(=O)CN(CCNC(=O)CN(CCNC(=O)CN(CCNC(=O)CN(CCNC(=O)CN(CCNC(=O)CN(CCNC(=O)CN(CCNC(=O)CN(CCNC(=O)CN(CCN)C(=O)Cn3cc(C)c(=O)[nH]c3=O)C(=O)Cn3ccc(N)nc3=O)C(=O)Cn3cnc4c(N)ncnc43)C(=O)Cn3cnc4c(N)ncnc43)C(=O)Cn3ccc(N)nc3=O)C(=O)Cn3cnc4c(=O)[nH]c(N)nc43)C(=O)Cn3cc(C)c(=O)[nH]c3=O)C(=O)Cn3cc(C)c(=O)[nH]c3=O)C(=O)Cn3cnc4c(N)ncnc43)C(=O)Cn3cnc4c(=O)[nH]c(N)nc43)C(=O)Cn3ccc(N)nc3=O)C(=O)Cn3cc(C)c(=O)[nH]c3=O)C(=O)Cn3cc(C)c(=O)[nH]c3=O)C(=O)Cn3ccc(N)nc3=O)C(=O)Cn3cnc4c(N)ncnc43)C(=O)Cn3ccc(N)nc3=O)C(=O)Cn3ccc(N)nc3=O)C(=O)NCC(N)=O)c3ccc(=[N+](CC)CC)cc-3oc2c1 [PNA-mycwt-R], the “cellular localization of fluorescence” value [1] is reported as “cytoplasmic localization”, the “cellular localization of fluorescence” value ([1]; listed as PNAmyc-R) is reported as “only in the cytoplasm” and the “cellular localization of fluorescence” value [2] is reported as “entirely cytoplasmic”. The “cellular localization of fluorescence” value ([2]; listed as PNAmyc-R) was “only in the cytoplasm”.

In the case of CCN(CC)c1ccc2c(-c3ccccc3C(=O)NCCCC[C@H](NC(=O)COCCOCCNC(=O)CN(CCNC(=O)CN(CCNC(=O)CN(CCNC(=O)CN(CCNC(=O)CN(CCNC(=O)CN(CCNC(=O)CN(CCNC(=O)CN(CCNC(=O)CN(CCNC(=O)CN(CCNC(=O)CN(CCNC(=O)CN(CCNC(=O)CN(CCNC(=O)CN(CCNC(=O)CN(CCNC(=O)CN(CCNC(=O)CN(CCNC(=O)COCCOCCNC(=O)CCC(=O)O[C@H]3CC[C@H]4[C@@H]5CC[C@H]6CC(=O)CC[C@]6(C)[C@H]5CC[C@]34C)C(=O)Cn3cc(C)c(=O)[nH]c3=O)C(=O)Cn3ccc(N)nc3=O)C(=O)Cn3cnc4c(N)ncnc43)C(=O)Cn3cnc4c(N)ncnc43)C(=O)Cn3ccc(N)nc3=O)C(=O)Cn3cnc4c(=O)[nH]c(N)nc43)C(=O)Cn3cc(C)c(=O)[nH]c3=O)C(=O)Cn3cc(C)c(=O)[nH]c3=O)C(=O)Cn3cnc4c(N)ncnc43)C(=O)Cn3cnc4c(=O)[nH]c(N)nc43)C(=O)Cn3ccc(N)nc3=O)C(=O)Cn3cc(C)c(=O)[nH]c3=O)C(=O)Cn3cc(C)c(=O)[nH]c3=O)C(=O)Cn3ccc(N)nc3=O)C(=O)Cn3cnc4c(N)ncnc43)C(=O)Cn3ccc(N)nc3=O)C(=O)Cn3ccc(N)nc3=O)C(=O)NCC(N)=O)c3ccc(=[N+](CC)CC)cc-3oc2c1 [PNA-mycwt-TR], the “cellular localization of fluorescence” value [1] is reported as “clearly detectable in the cell nuclei”, the “cellular localization of fluorescence” value ([1]; listed as PNAmyc-TR) is reported as “in nuclei as well as in cytoplasm” and the “fluorescence compared with matching PNA-mycwt-R” value [2] is reported as “far weaker”. The “cellular localization of fluorescence” value [2] was “entirely cytoplasmic” and the “cellular localization of fluorescence” value ([2]; listed as PNAmyc-TR) was “minimal and exclusively cytoplasmic”.
